The record followed here is patent US20160039936A1, “FIBROBLAST GROWTH FACTOR RECEPTOR INHIBITION FOR THE TREATMENT OF DISEASE” (UNIVERSITY OF MIAMI, priority 2011, published 2016).

Chains of the proteins cited; added tags and fusions are not shown. Residues count along the entry.
UniProt Q498D6, residues 17-800: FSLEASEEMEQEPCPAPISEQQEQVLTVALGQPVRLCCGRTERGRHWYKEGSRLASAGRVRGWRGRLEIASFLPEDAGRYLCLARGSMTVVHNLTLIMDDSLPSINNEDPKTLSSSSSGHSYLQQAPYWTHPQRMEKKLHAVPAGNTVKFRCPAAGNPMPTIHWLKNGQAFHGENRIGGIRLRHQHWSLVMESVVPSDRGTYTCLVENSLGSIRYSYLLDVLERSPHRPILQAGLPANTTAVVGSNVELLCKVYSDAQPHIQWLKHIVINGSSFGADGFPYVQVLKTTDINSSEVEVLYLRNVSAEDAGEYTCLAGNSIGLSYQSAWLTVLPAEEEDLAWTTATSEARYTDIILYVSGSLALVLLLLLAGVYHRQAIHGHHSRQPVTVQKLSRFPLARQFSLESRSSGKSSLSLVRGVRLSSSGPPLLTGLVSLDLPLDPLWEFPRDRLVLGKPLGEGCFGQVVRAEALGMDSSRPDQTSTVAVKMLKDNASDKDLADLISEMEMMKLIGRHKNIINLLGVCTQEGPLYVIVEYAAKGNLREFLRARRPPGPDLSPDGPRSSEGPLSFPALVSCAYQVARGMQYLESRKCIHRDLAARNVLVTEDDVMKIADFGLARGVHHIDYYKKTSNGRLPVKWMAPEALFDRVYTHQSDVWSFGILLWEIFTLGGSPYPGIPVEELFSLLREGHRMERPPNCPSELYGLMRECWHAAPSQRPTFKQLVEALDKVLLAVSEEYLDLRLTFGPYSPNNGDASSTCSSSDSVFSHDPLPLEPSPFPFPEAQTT

No constants are given. Whether binding was seen depends on the method and setting. Some entries that bind do so weakly or less than the wild type.

The target of assay [1] is T1, endogenous PLCγ of neonatal rat ventricular myocytes (NRVM) (rat) (UniProt P10686).
T1 sequence (looked up): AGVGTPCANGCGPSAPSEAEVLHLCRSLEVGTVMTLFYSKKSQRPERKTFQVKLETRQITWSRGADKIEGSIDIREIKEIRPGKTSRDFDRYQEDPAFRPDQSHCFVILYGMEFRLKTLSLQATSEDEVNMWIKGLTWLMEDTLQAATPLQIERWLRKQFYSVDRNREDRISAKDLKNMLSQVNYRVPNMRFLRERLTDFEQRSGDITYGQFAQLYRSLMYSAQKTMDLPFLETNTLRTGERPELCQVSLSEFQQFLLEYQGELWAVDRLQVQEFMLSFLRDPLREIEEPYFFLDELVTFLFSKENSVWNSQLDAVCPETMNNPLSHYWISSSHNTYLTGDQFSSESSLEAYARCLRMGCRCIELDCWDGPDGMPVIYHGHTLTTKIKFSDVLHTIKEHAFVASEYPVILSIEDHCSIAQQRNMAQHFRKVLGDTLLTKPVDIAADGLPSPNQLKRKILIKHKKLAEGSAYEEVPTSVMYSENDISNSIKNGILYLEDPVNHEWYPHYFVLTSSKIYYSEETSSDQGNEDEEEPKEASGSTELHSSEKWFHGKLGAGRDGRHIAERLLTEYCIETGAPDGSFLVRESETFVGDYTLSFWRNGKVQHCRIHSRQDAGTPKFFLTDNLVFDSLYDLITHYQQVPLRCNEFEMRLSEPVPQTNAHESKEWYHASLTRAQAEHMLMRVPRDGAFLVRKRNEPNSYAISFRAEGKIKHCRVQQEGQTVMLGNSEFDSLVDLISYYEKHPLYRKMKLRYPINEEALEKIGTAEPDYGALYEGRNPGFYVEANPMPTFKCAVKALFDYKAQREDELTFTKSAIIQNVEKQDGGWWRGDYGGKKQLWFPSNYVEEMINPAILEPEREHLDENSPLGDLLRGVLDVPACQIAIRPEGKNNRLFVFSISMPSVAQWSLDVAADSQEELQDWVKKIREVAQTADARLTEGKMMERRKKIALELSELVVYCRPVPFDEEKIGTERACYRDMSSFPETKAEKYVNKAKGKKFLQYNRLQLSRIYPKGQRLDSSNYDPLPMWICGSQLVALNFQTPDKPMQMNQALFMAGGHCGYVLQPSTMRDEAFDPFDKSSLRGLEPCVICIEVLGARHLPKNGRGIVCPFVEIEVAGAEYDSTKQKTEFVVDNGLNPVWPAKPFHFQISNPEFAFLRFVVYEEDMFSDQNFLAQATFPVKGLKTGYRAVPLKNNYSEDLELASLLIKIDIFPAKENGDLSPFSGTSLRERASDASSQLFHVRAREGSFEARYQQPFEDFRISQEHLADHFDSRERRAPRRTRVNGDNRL
The experiment in a line: anti-PLCγ immunoprecipitation from NRVM, immunoblot for FGFR4. For orientation: Immunoblotting shows a protein as a band on a membrane.

In assay [2] the target is T1, endogenous PLCγ of neonatal rat ventricular myocytes (NRVM) (rat). The experiment in a line: immunoprecipitation of endogenous PLCγ from NRVM treated with FGF23 for 30 minutes, immunoblot for FGFR4.

As to “endogenous FGFR4 of neonatal rat ventricular myocytes (NRVM) (from UniProt Q498D6 17-800) (receptor)”, the binding entry in assay [1] and in assay [2] was “binds” each time.
